The list shows a part of the results.
Legend:
Assay in all cases: log2 fold change, soluble protein after heating vs DMSO (PISA); higher = thermal stabilisation; K562 cells, 10 uM, 30 min; active = over 0.2 and 3.5 SD of the protein, either way, in both replicates (recomputed)
[1] = compound: Cc1ccc(NC(=O)c2ccc(CN3CC[C@H](N(C)C)C3)c(C(F)(F)F)c2)cc1Nc1nccc(-c2cncnc2)n1 [bafetinib]
In short: (§1)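 Soluble protein was quantified by TMTpro 16plex LC-MS/MS after channel sums were equalised. It was obtained as the supernatant after 21,000xg for 90 min from pooled aliquots of K562 cells (2×10^6 cells/mL, 10 μM compound, 30 min) heated for 3 min across 48°C-58°C and extracted in PBS with 0.5% NP-40 at 4°C. Thermal stability values are relative to control samples and come from duplicates. They are given as log2 fold changes.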

Protein sequences, listed by entry. Tags and fused reporters are not part of them. Lines headed by an entry give the natural chain unless they say otherwise; changes in a name come on top.
UniProt Q8IYB8: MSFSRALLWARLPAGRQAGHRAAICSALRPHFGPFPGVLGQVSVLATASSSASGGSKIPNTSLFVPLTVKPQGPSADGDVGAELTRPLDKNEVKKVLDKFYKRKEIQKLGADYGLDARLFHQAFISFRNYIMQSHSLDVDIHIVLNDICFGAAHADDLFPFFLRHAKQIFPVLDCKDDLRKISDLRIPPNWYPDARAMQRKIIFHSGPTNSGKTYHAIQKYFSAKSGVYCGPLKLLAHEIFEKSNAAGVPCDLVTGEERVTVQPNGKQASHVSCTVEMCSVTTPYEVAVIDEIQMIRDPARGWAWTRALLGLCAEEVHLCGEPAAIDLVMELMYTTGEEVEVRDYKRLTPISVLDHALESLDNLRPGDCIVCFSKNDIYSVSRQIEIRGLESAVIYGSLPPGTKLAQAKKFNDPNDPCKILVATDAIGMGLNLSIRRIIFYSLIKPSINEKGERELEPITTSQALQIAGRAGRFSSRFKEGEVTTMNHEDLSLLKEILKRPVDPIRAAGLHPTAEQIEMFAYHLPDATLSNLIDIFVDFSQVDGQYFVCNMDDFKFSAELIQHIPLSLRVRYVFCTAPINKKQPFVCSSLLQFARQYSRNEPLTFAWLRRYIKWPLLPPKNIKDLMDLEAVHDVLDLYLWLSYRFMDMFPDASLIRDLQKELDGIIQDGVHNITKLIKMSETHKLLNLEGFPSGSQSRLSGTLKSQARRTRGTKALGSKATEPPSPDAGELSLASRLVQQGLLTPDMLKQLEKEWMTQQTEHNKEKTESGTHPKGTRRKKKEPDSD
UniProt Q9NZ72: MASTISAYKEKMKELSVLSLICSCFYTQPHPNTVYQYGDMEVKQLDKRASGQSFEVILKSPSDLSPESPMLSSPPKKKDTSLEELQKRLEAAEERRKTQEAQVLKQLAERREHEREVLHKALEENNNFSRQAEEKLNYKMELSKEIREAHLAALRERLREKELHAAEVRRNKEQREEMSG
UniProt Q6UWL2: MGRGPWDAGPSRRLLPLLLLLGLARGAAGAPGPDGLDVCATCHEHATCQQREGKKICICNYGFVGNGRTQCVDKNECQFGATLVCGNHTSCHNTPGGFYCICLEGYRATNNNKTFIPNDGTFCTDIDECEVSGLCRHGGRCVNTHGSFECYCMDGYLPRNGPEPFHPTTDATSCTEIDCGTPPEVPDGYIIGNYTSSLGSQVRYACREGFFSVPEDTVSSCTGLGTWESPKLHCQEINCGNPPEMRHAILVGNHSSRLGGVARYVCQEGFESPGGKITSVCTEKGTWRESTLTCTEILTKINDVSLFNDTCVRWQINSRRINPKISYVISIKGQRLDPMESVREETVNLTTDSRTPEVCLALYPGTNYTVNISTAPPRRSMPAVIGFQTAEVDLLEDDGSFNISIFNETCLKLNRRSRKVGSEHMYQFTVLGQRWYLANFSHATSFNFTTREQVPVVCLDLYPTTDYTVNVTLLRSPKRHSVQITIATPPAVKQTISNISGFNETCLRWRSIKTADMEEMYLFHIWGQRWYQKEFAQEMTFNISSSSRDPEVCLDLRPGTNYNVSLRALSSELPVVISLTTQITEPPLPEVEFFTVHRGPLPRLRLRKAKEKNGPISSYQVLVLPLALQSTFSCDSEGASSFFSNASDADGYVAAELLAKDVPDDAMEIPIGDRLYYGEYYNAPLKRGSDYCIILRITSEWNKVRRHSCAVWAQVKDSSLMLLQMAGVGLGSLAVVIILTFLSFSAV
UniProt O75528: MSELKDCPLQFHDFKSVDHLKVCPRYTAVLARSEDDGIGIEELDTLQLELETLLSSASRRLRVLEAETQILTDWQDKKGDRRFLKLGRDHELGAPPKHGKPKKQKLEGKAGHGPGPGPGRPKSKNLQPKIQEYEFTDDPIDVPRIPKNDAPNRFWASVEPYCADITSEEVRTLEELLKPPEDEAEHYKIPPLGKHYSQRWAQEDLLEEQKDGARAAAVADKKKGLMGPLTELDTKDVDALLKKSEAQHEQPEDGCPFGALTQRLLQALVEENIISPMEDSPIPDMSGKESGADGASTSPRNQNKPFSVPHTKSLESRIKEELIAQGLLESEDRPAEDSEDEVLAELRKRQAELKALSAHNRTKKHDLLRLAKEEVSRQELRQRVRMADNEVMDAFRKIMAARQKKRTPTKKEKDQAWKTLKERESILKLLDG
UniProt Q8NHG7: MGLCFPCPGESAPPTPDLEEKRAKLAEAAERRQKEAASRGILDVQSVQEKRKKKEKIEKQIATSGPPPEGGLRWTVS
UniProt O15260: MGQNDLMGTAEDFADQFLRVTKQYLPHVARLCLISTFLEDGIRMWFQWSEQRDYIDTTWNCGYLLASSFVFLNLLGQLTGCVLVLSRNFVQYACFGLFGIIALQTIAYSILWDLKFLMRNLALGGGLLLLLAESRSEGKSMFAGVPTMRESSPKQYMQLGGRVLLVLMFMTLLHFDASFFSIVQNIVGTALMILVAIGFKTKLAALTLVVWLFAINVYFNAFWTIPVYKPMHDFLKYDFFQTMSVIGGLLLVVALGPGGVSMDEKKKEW
UniProt Q16514: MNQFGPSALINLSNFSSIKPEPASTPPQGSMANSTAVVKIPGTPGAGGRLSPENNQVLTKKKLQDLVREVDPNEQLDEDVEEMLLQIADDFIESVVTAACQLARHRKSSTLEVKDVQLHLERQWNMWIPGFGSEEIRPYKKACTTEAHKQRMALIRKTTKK
UniProt Q15526: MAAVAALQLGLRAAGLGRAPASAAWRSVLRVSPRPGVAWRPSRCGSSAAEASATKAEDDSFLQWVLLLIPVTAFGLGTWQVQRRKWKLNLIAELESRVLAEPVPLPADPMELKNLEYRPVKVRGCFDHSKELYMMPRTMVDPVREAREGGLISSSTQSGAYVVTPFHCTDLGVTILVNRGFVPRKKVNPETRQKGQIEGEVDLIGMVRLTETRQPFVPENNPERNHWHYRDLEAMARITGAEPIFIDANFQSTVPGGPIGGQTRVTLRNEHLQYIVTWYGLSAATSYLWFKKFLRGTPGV
UniProt Q6P1N9: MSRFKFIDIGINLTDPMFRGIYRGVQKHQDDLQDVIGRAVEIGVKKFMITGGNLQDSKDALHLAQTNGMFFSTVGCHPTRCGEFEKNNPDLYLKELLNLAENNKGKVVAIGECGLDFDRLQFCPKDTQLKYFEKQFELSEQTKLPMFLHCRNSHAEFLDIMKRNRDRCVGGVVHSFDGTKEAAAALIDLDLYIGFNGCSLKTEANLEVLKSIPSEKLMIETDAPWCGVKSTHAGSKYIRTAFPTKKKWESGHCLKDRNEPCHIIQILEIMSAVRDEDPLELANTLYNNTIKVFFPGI
UniProt Q96C24: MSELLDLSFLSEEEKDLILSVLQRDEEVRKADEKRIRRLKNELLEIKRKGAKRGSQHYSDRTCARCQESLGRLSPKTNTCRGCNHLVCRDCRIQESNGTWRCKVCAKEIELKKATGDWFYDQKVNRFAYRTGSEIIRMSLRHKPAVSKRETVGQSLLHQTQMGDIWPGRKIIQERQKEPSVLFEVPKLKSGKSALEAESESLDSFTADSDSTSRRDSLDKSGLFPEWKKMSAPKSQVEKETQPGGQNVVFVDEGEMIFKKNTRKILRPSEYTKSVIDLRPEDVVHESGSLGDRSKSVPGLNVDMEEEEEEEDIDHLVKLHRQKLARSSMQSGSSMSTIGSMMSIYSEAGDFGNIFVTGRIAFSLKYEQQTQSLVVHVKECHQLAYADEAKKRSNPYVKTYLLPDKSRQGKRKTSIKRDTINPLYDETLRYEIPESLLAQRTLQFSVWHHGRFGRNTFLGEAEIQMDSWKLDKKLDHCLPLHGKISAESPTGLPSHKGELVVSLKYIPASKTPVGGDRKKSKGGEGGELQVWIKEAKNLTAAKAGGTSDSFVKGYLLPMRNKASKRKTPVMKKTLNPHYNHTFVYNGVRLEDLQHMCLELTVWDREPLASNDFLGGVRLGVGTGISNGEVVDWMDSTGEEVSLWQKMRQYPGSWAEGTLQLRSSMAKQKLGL
UniProt Q8WXE9: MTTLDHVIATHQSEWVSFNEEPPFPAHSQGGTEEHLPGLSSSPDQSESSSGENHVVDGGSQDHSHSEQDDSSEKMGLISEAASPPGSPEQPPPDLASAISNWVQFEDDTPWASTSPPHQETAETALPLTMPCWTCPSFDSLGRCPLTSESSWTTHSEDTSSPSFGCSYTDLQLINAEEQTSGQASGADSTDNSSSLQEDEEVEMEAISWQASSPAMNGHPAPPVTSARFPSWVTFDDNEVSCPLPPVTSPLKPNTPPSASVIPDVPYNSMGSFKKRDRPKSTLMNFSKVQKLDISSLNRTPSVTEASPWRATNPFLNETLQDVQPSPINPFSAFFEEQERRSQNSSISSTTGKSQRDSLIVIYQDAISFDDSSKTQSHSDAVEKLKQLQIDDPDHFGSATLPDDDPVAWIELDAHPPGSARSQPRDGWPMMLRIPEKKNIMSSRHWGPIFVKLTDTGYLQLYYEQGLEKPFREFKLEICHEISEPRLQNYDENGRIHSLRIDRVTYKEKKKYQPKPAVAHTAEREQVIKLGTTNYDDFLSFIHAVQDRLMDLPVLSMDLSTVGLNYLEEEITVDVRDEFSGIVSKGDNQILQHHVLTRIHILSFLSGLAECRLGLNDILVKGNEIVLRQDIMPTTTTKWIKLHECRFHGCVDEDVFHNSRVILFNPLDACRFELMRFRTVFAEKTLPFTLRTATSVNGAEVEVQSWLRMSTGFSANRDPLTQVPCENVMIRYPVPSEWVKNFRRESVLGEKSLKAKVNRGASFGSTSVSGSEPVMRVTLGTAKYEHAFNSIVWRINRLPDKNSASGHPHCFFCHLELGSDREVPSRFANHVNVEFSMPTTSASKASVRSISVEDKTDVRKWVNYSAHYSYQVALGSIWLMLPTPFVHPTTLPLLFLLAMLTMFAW
UniProt Q9UK61: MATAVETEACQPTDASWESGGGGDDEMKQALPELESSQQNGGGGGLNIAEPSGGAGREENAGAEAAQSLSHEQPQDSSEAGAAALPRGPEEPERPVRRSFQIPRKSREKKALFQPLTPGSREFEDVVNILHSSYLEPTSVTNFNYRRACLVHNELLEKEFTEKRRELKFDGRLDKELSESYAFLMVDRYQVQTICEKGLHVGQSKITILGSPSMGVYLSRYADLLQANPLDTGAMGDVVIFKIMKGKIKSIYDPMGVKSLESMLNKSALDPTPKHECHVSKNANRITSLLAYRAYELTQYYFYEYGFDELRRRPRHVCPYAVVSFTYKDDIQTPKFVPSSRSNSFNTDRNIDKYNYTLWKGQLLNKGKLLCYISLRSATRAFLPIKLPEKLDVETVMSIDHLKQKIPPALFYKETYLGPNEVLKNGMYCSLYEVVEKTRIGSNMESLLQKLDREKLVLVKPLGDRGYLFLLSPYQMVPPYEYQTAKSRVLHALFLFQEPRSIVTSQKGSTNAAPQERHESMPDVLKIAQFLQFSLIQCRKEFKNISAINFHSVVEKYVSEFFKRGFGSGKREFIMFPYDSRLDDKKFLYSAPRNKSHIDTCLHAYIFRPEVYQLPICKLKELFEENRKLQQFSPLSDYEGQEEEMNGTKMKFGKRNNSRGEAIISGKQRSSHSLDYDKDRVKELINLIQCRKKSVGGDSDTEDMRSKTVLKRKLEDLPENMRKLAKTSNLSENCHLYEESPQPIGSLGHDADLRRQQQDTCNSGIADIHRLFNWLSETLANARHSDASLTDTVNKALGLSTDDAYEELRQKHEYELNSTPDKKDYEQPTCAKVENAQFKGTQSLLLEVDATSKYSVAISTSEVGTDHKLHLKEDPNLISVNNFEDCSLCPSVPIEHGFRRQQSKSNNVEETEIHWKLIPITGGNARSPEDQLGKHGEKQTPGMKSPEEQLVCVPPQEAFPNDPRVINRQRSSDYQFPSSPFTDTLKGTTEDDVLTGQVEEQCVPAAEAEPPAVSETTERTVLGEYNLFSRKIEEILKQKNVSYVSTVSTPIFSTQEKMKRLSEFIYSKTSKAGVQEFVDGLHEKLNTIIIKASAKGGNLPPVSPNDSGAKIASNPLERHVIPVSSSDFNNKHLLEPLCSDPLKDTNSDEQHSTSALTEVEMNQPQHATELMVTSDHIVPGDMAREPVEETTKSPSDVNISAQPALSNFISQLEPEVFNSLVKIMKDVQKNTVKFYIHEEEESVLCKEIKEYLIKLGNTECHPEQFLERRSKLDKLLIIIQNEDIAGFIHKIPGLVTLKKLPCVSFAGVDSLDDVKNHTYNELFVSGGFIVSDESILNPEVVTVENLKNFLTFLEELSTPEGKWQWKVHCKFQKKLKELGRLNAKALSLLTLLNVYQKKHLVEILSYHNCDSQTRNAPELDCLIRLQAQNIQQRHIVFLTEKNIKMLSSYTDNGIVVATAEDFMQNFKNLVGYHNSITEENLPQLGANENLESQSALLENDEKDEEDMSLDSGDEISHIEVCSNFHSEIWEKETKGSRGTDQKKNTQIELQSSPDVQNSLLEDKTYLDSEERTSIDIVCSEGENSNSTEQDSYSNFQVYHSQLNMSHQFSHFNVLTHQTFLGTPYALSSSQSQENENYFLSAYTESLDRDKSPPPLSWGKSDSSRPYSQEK

[2] = compound: Cc1cccc(CC(=O)N2CCc3c2ccc(-c2cn(C)c4ncnc(N)c24)c3F)n1
In short: as §1

[3] = compound: Cc1cn(-c2cc(NC(=O)c3ccc(C)c(Nc4nccc(-c5cccnc5)n4)c3)cc(C(F)(F)F)c2)cn1 [nilotinib]
In short: as §1

[4] = compound: Cc1nc(Nc2n[nH]c3c2CN(C(=O)N[C@H](CN(C)C)c2ccccc2)C3(C)C)c2sccc2n1
In short: as §1

[5] = compound: Cc1nc(Nc2ncc(C(=O)Nc3c(C)cccc3Cl)s2)cc(N2CCN(CCO)CC2)n1 [dasatinib]
In short: as §1

[6] = compound: Cc1ncc(-c2ccnc(Nc3ccc(S(C)(=O)=O)cc3)n2)n1C(C)C
In short: as §1

[7] = compound: Cn1cc(-c2ccc3c(c2)CCN3C(=O)Cc2cccc(C(F)(F)F)c2)c2c(N)ncnc21
In short: as §1

[8] = compound: Cn1cc(-c2ccc3nnc(C(F)(F)c4ccc5ncccc5c4)n3n2)cn1
In short: as §1

[9] = compound: Cn1cncc1[C@@](N)(c1ccc(Cl)cc1)c1ccc2c(c1)c(-c1cccc(Cl)c1)cc(=O)n2C [tipifarnib]
In short: as §1

[10] = compound: FC(F)(F)c1ccc(/C=C/c2nc(COc3ccc(CCCCn4ccnn4)cc3)co2)cc1 [mubritinib]
In short: as §1

Measured: log2 fold change

SUPV3L1 (UniProt Q8IYB8)
inactive: [1] -0.043 | [2] -0.017 | [3] -0.036 | [4] -0.032 | [5] 0.002 | [6] 0 | [7] -0.054 | [8] -0.059 | [9] 0.036 | [10] -0.048

STX16 isoform 2 (UniProt O14662)
inactive: [1] 0.042 | [2] 0.058 | [3] -0.057 | [4] -0.056 | [5] -0.064 | [6] -0.023 | [7] 0.049 | [8] 0.007 | [9] 0.041 | [10] 0.114

STMN3 (UniProt Q9NZ72)
inactive: [1] -0.024 | [2] -0.042 | [3] 0.083 | [4] -0.076 | [5] 0.054 | [6] -0.1 | [7] 0.045 | [8] -0.07 | [9] 0.046 | [10] 0.034

SUSD1 isoform 2 (UniProt Q6UWL2)
inactive: [1] -0.068 | [2] 0.031 | [3] -0.049 | [4] 0.072 | [5] 0.082 | [6] -0.075 | [7] -0.209 | [9] 0.008

STK38L (UniProt Q9Y2H1)
inactive: [1] -0.02 | [2] -0.065 | [3] -0.032 | [4] -0.238 | [5] -0.012 | [6] -0.03 | [7] -0.122 | [8] -0.582 | [10] 0.081

TAF7 (UniProt Q15545)
inactive: [1] -0.102 | [2] 0.017 | [3] -0.037 | [4] -0.056 | [5] 0.005 | [6] 0.014 | [7] -0.012 | [8] 0.005 | [9] -0.009 | [10] 0.014

TBC1D13 (UniProt Q9NVG8)
inactive: [1] -0.041 | [2] -0.029 | [3] -0.018 | [4] 0.013 | [5] 0.01 | [6] -0.009 | [7] 0.028 | [8] 0.044 | [9] -0.001 | [10] 0.061

TADA3 (UniProt O75528)
inactive: [1] -0.056 | [2] 0 | [3] -0.047 | [4] -0.004 | [5] -0.01 | [6] -0.03 | [7] 0.007 | [8] -0.004 | [9] 0.027 | [10] 0

SUGT1 (UniProt Q9Y2Z0)
inactive: [1] -0.052 | [2] 0.026 | [3] -0.005 | [4] -0.032 | [5] -0.019 | [6] 0.008 | [7] 0.006 | [8] -0.009 | [9] -0.051 | [10] 0.057

Looked up one by one from the entries so far (2):
TAF7 (UniProt Q15545)
inactive: [1] -0.102 | [2] 0.017 | [3] -0.037 | [4] -0.056 | [5] 0.005 | [6] 0.014 | [7] -0.012 | [8] 0.005 | [9] -0.009 | [10] 0.014

SUGT1 (UniProt Q9Y2Z0)
inactive: [1] -0.052 | [2] 0.026 | [3] -0.005 | [4] -0.032 | [5] -0.019 | [6] 0.008 | [7] 0.006 | [8] -0.009 | [9] -0.051 | [10] 0.057

More entries.

SULT1E1 (UniProt P49888)
inactive: [1] -0.109 | [2] -0.079 | [3] 0.015 | [4] 0.038 | [6] 0.063

SVIP (UniProt Q8NHG7)
inactive: [1] -0.087 | [2] -0.038 | [3] 0.072 | [4] 0.015 | [6] -0.076 | [7] 0.069 | [8] -0.129 | [9] 0.021 | [10] 0.036

STRN3 isoform 2 (UniProt Q13033)
inactive: [1] -0.093 | [2] 0.036 | [3] 0.019 | [4] -0.013 | [6] 0.02 | [7] -0.062 | [9] 0.021 | [10] -0.132

SYNCRIP (UniProt O60506)
inactive: [1] 0.047 | [2] -0.015 | [3] -0.045 | [4] 0.036 | [5] 0.092 | [6] 0.006 | [7] -0.185 | [8] -0.111 | [9] 0.108 | [10] -0.067

TAF9 (UniProt Q16594)
inactive: [1] -0.076 | [2] -0.026 | [3] 0.061 | [4] -0.031 | [5] 0.146 | [6] -0.086 | [7] -0.12 | [8] -0.011 | [9] 0.077 | [10] -0.005

TALDO1 (UniProt P37837)
inactive: [1] -0.02 | [2] 0.069 | [3] -0.057 | [4] 0.005 | [5] -0.071 | [6] -0.029 | [7] 0.061 | [8] 0.051 | [9] -0.076 | [10] 0.101

SWI5 (UniProt Q1ZZU3)
inactive: [1] 0.057 | [2] 0.021 | [3] -0.047 | [4] 0 | [5] 0.105 | [6] 0.019 | [7] 0.002 | [9] -0.163

STX6 (UniProt O43752)
inactive: [1] -0.057 | [2] 0.028 | [3] 0.062 | [4] -0.028 | [5] 0.009 | [6] -0.025 | [7] -0.033 | [8] -0.003 | [9] -0.009 | [10] 0.049

STUB1 (UniProt Q9UNE7)
inactive: [1] -0.013 | [2] -0.009 | [3] -0.043 | [4] -0.021 | [5] -0.034 | [6] -0.052 | [7] -0.08 | [8] -0.054 | [9] -0.018 | [10] -0.054

SURF4 (UniProt O15260)
inactive: [1] 0.01 | [2] -0.001 | [3] -0.008 | [4] 0.023 | [5] -0.003 | [6] -0.009 | [7] 0.006 | [8] 0.057 | [9] 0.048 | [10] 0.015

TAF12 (UniProt Q16514)
inactive: [1] 0.008 | [2] -0.018 | [3] -0.043 | [4] -0.007 | [6] 0.113 | [9] -0.001 | [10] 0.014

TARDBP (UniProt Q13148)
inactive: [1] 0.04 | [2] 0.067 | [3] 0.043 | [4] -0.099 | [6] 0.097 | [7] -0.086 | [8] -0.087 | [9] -0.084 | [10] -0.126

SYNJ2BP-COX16, A0A087WYV9
inactive: [1] -0.095 | [2] -0.049 | [3] 0.037 | [4] 0.069 | [5] 0.03 | [6] -0.002 | [7] 0.028 | [8] 0.027 | [9] 0.047 | [10] -0.019

SYVN1 (UniProt Q86TM6)
inactive: [1] -0.057 | [2] 0 | [3] -0.007 | [4] 0.028 | [5] 0.048 | [6] -0.034 | [7] 0.029 | [8] 0.008 | [9] -0.021 | [10] 0.045

SURF1 (UniProt Q15526)
inactive: [1] -0.184 | [2] -0.042 | [3] -0.065 | [4] 0.028 | [5] -0.028 | [6] 0.011 | [7] 0.021 | [8] 0.019 | [9] -0.061 | [10] 0.042

TATDN1 (UniProt Q6P1N9)
inactive: [1] -0.06 | [2] -0.005 | [3] 0.028 | [4] -0.033 | [5] 0.106 | [6] -0.01 | [7] -0.031 | [8] 0.042 | [9] 0.063 | [10] 0.074

TATDN2 (UniProt Q93075)
inactive: [1] 0.088 | [2] -0.151 | [3] 0.137 | [4] -0.217 | [5] -0.042 | [6] -0.043 | [7] -0.059 | [9] 0.074

STRN3 (UniProt Q13033)
inactive: [1] -0.055 | [2] 0.016 | [3] -0.029 | [4] 0.09 | [5] 0.021 | [6] 0.015 | [7] -0.009 | [8] 0.032 | [9] -0.068 | [10] 0.032

STX18 (UniProt Q9P2W9)
inactive: [1] 0.015 | [2] 0.082 | [3] -0.07 | [4] -0.073 | [5] -0.089 | [6] -0.014 | [7] 0 | [8] -0.042 | [9] -0.037 | [10] 0.052

SYTL4 (UniProt Q96C24)
inactive: [1] 0.04 | [3] -0.013 | [4] -0.045 | [5] -0.228 | [6] -0.169 | [7] -0.006 | [9] 0.074 | [10] -0.172

STON2 isoform 3 (UniProt Q8WXE9)
inactive: [2] -0.087 | [3] 0.089 | [4] -0.007 | [6] 0.015 | [8] -0.033

TASOR (UniProt Q9UK61)
inactive: [8] -0.007
